Assay [1] deals with T1, GST-CESA3CD (catalytic domain of cellulose synthase CESA3 fused to GST) (Arabidopsis thaliana) (UniProt Q941L0).
T1 sequence: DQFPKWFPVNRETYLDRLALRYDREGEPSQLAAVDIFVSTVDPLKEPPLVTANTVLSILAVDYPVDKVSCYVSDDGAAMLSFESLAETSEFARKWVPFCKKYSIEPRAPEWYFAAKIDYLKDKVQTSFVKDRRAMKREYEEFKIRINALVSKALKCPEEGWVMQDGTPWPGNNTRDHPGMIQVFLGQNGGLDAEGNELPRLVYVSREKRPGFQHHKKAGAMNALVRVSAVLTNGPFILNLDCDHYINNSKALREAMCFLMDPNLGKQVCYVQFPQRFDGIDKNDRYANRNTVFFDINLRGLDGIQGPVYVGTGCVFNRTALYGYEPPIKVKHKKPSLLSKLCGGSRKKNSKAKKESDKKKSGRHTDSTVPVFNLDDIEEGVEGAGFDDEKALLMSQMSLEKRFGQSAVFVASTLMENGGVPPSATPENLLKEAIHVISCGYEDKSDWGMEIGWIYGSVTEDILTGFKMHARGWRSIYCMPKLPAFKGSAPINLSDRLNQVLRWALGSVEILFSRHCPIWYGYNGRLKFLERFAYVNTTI
In words: pull-down.

Chains of the proteins cited; added tags and fusions are not shown. Lines headed by an entry give the natural chain unless they say otherwise; changes in a name come on top.
UniProt O48946: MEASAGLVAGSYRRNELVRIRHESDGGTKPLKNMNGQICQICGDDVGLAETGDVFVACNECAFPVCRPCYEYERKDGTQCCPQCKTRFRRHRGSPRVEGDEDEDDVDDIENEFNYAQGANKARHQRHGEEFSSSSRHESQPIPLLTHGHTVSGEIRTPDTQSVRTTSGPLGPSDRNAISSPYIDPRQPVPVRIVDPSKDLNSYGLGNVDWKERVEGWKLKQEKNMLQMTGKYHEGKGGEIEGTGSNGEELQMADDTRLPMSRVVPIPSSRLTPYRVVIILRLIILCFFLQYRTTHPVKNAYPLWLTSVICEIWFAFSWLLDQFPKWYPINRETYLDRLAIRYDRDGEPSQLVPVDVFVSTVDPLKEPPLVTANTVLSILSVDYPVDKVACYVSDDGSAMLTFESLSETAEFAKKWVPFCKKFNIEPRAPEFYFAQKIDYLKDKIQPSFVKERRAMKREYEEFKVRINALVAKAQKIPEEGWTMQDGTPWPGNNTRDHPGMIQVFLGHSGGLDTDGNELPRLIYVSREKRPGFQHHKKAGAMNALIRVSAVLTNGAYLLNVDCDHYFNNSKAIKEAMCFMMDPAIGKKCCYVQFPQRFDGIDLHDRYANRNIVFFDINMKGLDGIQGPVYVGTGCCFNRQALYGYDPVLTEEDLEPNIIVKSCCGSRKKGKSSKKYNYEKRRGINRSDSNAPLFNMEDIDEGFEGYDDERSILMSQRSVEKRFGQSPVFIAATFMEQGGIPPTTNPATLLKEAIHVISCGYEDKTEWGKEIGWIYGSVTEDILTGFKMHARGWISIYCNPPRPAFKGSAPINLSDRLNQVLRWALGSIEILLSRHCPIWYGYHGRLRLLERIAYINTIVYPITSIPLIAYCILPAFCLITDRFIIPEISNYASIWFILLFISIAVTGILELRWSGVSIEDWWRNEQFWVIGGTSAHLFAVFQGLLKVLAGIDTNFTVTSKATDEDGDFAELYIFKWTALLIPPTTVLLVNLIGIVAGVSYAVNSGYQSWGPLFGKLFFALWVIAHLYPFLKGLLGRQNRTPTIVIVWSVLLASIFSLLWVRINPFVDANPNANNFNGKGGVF

In assay [2] the target is GST-CESA1CD (catalytic domain of cellulose synthase CESA1 fused to GST) (Arabidopsis thaliana) (UniProt O48946). The assay is described as follows: pull-down.

Our source for the binding values is doi:10.1101/2023.02.01.526621 (bioRxiv, 2023).

Results are given in words; binding and its absence hold for the method and conditions named. For part of these data: Binding can be weak; no strength is given. Where a sequence is shown, tags or fusion partners need not be part of it.

On to “His-CPK32-N (N-terminal variable domain of CPK32) (Arabidopsis thaliana) (domain or fragment)”, for which, in assay [1], the binding result was “no binding”.

B1: His-tagged full-length CALCIUM-DEPENDENT PROTEIN KINASE32 (His-CPK32) (enzyme, Arabidopsis thaliana, UniProt Q6NLQ6 1-538, looked up)
chain: MGNCCGTAGSLAQNDNKPKKGRKKQNPFSIDYGLHHGGGDGGGRPLKLIVLNDPTGREIESKYTLGRELGRGEFGVTYLCTDKETDDVFACKSILKKKLRTAVDIEDVRREVEIMRHMPEHPNVVTLKETYEDEHAVHLVMELCEGGELFDRIVARGHYTERAAAAVTKTIMEVVQVCHKHGVMHRDLKPENFLFGNKKETAPLKAIDFGLSVFFKPGERFNEIVGSPYYMAPEVLKRNYGPEVDIWSAGVILYILLCGVPPFWAETEQGVAQAIIRSVLDFRRDPWPKVSENAKDLIRKMLDPDQKRRLTAQQVLDHPWLQNAKTAPNVSLGETVRARLKQFTVMNKLKKRALRVIAEHLSDEEASGIREGFQIMDTSQRGKINIDELKIGLQKLGHAIPQDDLQILMDAGDIDRDGYLDCDEFIAISVHLRKMGNDEHLKKAFAFFDQNNNGYIEIEELREALSDELGTSEEVVDAIIRDVDTDKDGRISYEEFVTMMKTGTDWRKASRQYSRERFNSISLKLMQDASLQVNGDTR
For the molecule B1, the binding result in assay [2] is on record as “binds”.

B2: His-CPK32-K (kinase domain of CPK32) (domain or fragment, UniProt Q6NLQ6 63-321)
chain: YTLGRELGRGEFGVTYLCTDKETDDVFACKSILKKKLRTAVDIEDVRREVEIMRHMPEHPNVVTLKETYEDEHAVHLVMELCEGGELFDRIVARGHYTERAAAAVTKTIMEVVQVCHKHGVMHRDLKPENFLFGNKKETAPLKAIDFGLSVFFKPGERFNEIVGSPYYMAPEVLKRNYGPEVDIWSAGVILYILLCGVPPFWAETEQGVAQAIIRSVLDFRRDPWPKVSENAKDLIRKMLDPDQKRRLTAQQVLDHPWL
Regarding B2, in assay [2], the binding result is recorded as “binds”.
